# The shares of active, inactive and inconclusive entries below differ from those in the screen. Potencies of inconclusive entries are doubtful fits and often do not repeat. Calls of active or inactive are those of the source. Calls come from the whole dose curve; as a rule, active = well fitted inhibition curve with a large enough effect; inconclusive = small, poorly fitted or top-dose-only effect, or effect the other way; inactive = flat fitted curve, though single readings scatter.
# Assay: qHTS Assay Multiplex Screening to Identify Dual Action Probes in a Cell Model of Huntington: Cytoprotection (Protease relase)
# Settings: PC12 HttQ103 cells, Cytotox-Glo protease release, 40 h; series mostly up to 46.1 µM; activity change, negative = inhibition: at the top concentration
# Source text: NIH Chemical Genomics Center [NCGC]
# NIH Molecular Libraries Probe Production centers Network [MLPCN]
# Assay Submitter (PI): Wei Zheng
# Huntington's disease is a neurodegenerative disorder caused by a trinucleotide repeat expansion in Exon 1 of the Huntingtin gene. The CAG trinucleotide encodes glutamine and polyglutamine expansions cause cell death in selective areas of the brain. Huntington polyglutamine repeats have the tendency to form aggregates which are observable in later stages of the disease. The exact nature of the aggregates, whether toxic, protective, or insignificant, is unclear.
# A stable PC12 cell line containing a gene fusion of Exon 1 of the Huntingtin gene linked to GFP under the control of the inducible ecdysone promoter were used as the cell-based model of Huntington Disease for high throughput screening. Exon 1 of the Huntingtin gene contained an expansion of 103 polyglutamines (Q103) which, when expressed, caused cell death and distinct, bright GFP aggregates. The amount of cell death and the size and intensity of GFP aggregates increased over time and induction level. In the primary screen, cell death were quantified with a measurement of ATP content in the cells. A maximal 40-50% of cell death was observed when the Huntington gene was induced in this cell line.
# We optimized this assay in a homogeneous 1536 well format. A quantitative high throughput screen (qHTS) was conducted on the PC12 cells which were induced to express the toxic fusion construct. Small molecules which prevented cell death were considered hits, and were further studied. The present assay is an alternate assay for cytoprotection using Promega's Cytotox-Glo reagent.
# PC12 cells stably containing a construct with an ecdysone inducible promoter expressing GFP fused to the exon 1 of HTTQ103 (Huntington protein which containing a 103 ployglutamine expansion) were used.
# NCGC Assay Protocol Summary:
# Sequence, Parameter, Description
# 1, Reagent, 5 uL 1500 cells/well 1536 TC treated White clear bottom plate
# 2, Compound, 23 nL Tebufenozide inducer (100 nM final) to all columns
# 3, Compound, 23 nL 40 uM to 0.5 nM Libraries
# 5, Reagent, 2 ul Promega's Cytotox-Glo assay reagent
# 6, Detector, 4 sec integration with a Viewlux Luminescent
# Media consisted of phenol red free DMEM + 5% equine serum (Hyclone # SH30072.03 ), 5% supplemented Bovine Calf Serum (Hyclone # SH30074.03 ), 1x pen/strep, no G418
SMILES,Potency,"activity change, negative = inhibition"
Cn1nnnc1Sc1ncnc2scc(-c3cccc(Br)c3)c12,"inconclusive: 7.08 µM [inhibitor, partial curve, poor fit]",
COc1ccc(C)cc1NC(=O)C(Sc1nnnn1C)c1ccccc1 (stereo not given),,inactive: -4.35%
Cc1cc(C)nc(Sc2nc(C)nc3c2oc2ccccc23)n1,,inactive: -11.1%
COc1ccccc1-c1csc2ncnc(Sc3nnnn3C)c12,"inconclusive: 15.8 µM [inhibitor, partial curve]",
CCc1ccc2oc(-c3cc(N)ccc3O)nc2c1,"inconclusive: 8.91 µM [inhibitor, full curve, poor fit]",
N#CCCCS(=O)(=O)c1nnnn1-c1ccc(F)cc1Br,"inconclusive: 25.1 µM [inhibitor, partial curve, poor fit]",
Cc1ccc(C(=O)CSC2=NC(N)=C(C#N)C3(CCCCC3)C2C(N)=O)cc1 (stereo not given),"inconclusive: 28.2 µM [inhibitor, partial curve, poor fit]",
CC(=O)c1cccc(-c2csc3ncnc(Sc4nnnn4C)c23)c1,active: 7.08 µM,
Cn1nnnc1Sc1ncnc2scc(-c3cccc4c3sc3ccccc34)c12,"inconclusive: 12.6 µM [inhibitor, full curve]",
CCc1nc(SCC(=O)N2CCCC2)c2ccccc2n1,,inactive: -6.46%
Cc1[nH]nc2c1C(c1ccccc1)C1=C(CC(C)(C)CC1=O)N2 (stereo not given),"inconclusive: 3.16e-05 µM [activator, full curve, poor fit]",
Cc1csc(N/N=C/c2ccc(O)c([N+](=O)[O-])c2)n1,active: 1.78 µM,
COc1ccc(C2=Nc3cc(C)ccc3OC2)cc1,active: 11.2 µM,
Cn1nnnc1Sc1ncnc2scc(-c3cccc(N)c3)c12,"inconclusive: 22.4 µM [inhibitor, partial curve, poor fit]",
COc1ccc2nc(Sc3c([N+](=O)[O-])nc(C)n3Cc3ccccc3)[nH]c2c1,"inconclusive: 10 µM [inhibitor, full curve, poor fit]",
CC(=O)c1ccccc1-c1csc2ncnc(Sc3nnnn3C)c12,"inconclusive: 17.8 µM [inhibitor, full curve, poor fit]",
CN1C(=O)CC(Sc2ncccc2C(=O)O)C1=O (stereo not given),,inactive: 4.06%
O=C(CP(=O)(c1ccccc1)c1ccccc1)N1CCCCC1,"inconclusive: 15.8 µM [inhibitor, full curve, poor fit]",
Cc1nnsc1C(=O)N/N=C/c1ccc2ccccc2c1O,"inconclusive: 25.1 µM [inhibitor, partial curve, poor fit]",
COc1ccc(C(=O)C(CN2CCOCC2)c2ccccc2)cc1F (stereo not given),"inconclusive: 8.91 µM [inhibitor, full curve, poor fit]",

SMILES,Potency,"activity change, negative = inhibition"
NC(=O)c1sc2nccc(Nc3ccccc3)c2c1N,,inactive: -13.6%
COc1ccc(C(=O)C(CN2CCOCC2)c2ccccc2)cc1 (stereo not given),"inconclusive: 7.94 µM [inhibitor, full curve, poor fit]",
O=C(CSc1c2c(nc3cc(Cl)ccc13)CCCC2)NCc1ccco1,"inconclusive: 35.5 µM [inhibitor, partial curve, poor fit]",
Clc1ccccc1C1=Nn2c(nnc2-c2ccncc2)SC1,inconclusive: 0.0004 µM [activator],
Cc1ccc(S(=O)(=O)CCc2nc3ccccc3n2CCC#N)cc1,active: 25.1 µM,
Cn1nnnc1Sc1ncnc2scc(-c3ccc(Cl)cc3)c12,"inconclusive: 10 µM [inhibitor, partial curve]",
CC(NC(=O)OCc1ccccc1)C(=O)N1CC(O)CC1C(=O)O (stereo not given),"inconclusive: 14.1 µM [inhibitor, single point]",
c1csc(C2=Nn3c(nnc3-c3ccncc3)SC2)c1,"inconclusive: 28.2 µM [inhibitor, single point]",
N#Cc1cc2sc3nnc(-c4ccncc4)n3c2cc1C#N,"inconclusive: 12.6 µM [inhibitor, full curve]",
Cc1ccc(Sc2ncnc3onc(C)c23)c(C)c1,"inconclusive: 3.55e-05 µM [activator, full curve, poor fit]",
O=C(Nc1ccccc1)C1=C(O)CC(c2ccco2)CC1=Nc1ccccc1 (stereo not given),,inactive: -8.66%
CCCn1nc([N+](=O)[O-])c(C(C#N)c2nc3ccccc3s2)c(Cl)c1=O (stereo not given),"inconclusive: 28.2 µM [inhibitor, partial curve, poor fit]",
C=CS(=O)(=O)c1ccc(Oc2ccc(S(=O)(=O)C=C)cc2)cc1,active: 10 µM,
Cn1nnnc1Sc1ncnc2scc(-c3cccs3)c12,"inconclusive: 6.31 µM [inhibitor, full curve, poor fit]",
COc1ccc2c(c1)-c1c(ssc1=S)C(C)(C)N2,"inconclusive: 4.47 µM [inhibitor, full curve]",
CC(C)OC(=O)c1cccnc1SCc1cc(=O)n2ccccc2n1,"inconclusive: 17.8 µM [inhibitor, partial curve, poor fit]",
CN(C)c1ccc(-c2n(C)c3ccccc3[n+]2C)cc1,"inconclusive: 35.5 µM [inhibitor, single point]",
O=C(NCc1ccco1)c1cc2ccc(O)cc2oc1=O,active: 2.82 µM,
O=C(OCC(F)(F)F)[C@H](O)[C@@H](O)C(=O)OCC(F)(F)F,inconclusive: 0.0013 µM [activator],
CC(=O)c1n[nH]nc1NC(=O)c1ccccc1,"inconclusive: 25.1 µM [inhibitor, partial curve, poor fit]",

# Quoted from the listing:
# Under Potency, Cn1nnnc1Sc1ncnc2scc(-c3ccc(Cl)cc3)c12 reads inconclusive: 10 µM [inhibitor, partial curve]
# Under Potency, COc1ccc(C(=O)C(CN2CCOCC2)c2ccccc2)cc1 (stereo not given) reads inconclusive: 7.94 µM [inhibitor, full curve, poor fit]
# Under Potency, O=C(OCC(F)(F)F)[C@H](O)[C@@H](O)C(=O)OCC(F)(F)F reads inconclusive: 0.0013 µM [activator]
